# Assay results as given in patent publication US20240011034A1, “INHIBITION OF miR-29b-3p TO ENHANCE NEURONAL SURVIVAL IN HUNTINGTON'S DISEASE” (Washington University, priority 2022, published 2024).
# At least one compound was matched to its structure with a doubt left.
# Tests used:
# Format in all cases: cell-based, human
# [1] = system: reprogrammed MSNs; assay: tandem mCherry-GFP-LC3 reporter puncta quantification; conditions: pre-HD-MSNs, 50 μM vs DMSO
# Method: FUW mCherry-GFP-LC3 used was Addgene plasm id # 110060; http://n2t.net/addgene:110060; RRID:Addgene_110060. The concentrated lentivirus of mCherry-GFP-LC3 was added to reprogrammed MSNs at PID20. For imaging of cells expressing mCherry-GFP-LC3, cells were washed once with PBS, fixed and stained by TUBB3 antibody, after verification of expression of GFP and mCherry by microscopy at PID26. Images were captured using a Leica SP5X white light laser confocal system with Leica Application Suite (LAS) Advanced Fluorescence 2.7.3.9723. For quantification of autophagosome (i.e., mCherry+, GFP+ puncta) and autolysosome (i.e., mCherry+, GFP− puncta) compartments in MSNs from multiple HD patients and control individuals, measurements were performed in cells having at least 3 puncta per cell.
# [2] = system: reprogrammed MSNs; assay: Apoptosis assay in live cells (Caspase-3/7, Annexin V); conditions: pre-HD-MSNs, 50 μM vs DMSO
# Method: Reprogrammed cells grown in 96-well plates were treated with 1× Essen Bioscience IncuCyte® Caspase-3/7 Green Reagent (final concentration 5 μM) and 1× Essen Bioscience IncuCyte® Annexin V Green or Red Reagent on day 22 or 26. Image scheduling, collection, and analysis were conducted with the IncuCyte® S3 LiveCell Analysis System platform and IncuCyte S3 v2017A software. Treated plates were imaged every two hours for 7 days. At each timepoint, over 2 images were taken per well in brightfield, FITC, and TRITC channels. Images were analyzed for the number of green or red objects per well. For the apoptotic index, the number of green or red objects (i.n., fluorescence cells) divided by phase area (μm2) per well was quantified by the IncuCyte® S3 Live-Cell Analysis System.
# [3] = system: reprogrammed MSNs; assay: CYTO-ID assay for accumulated autophagic vacuoles; conditions: 50 μM vs DMSO, PID26
# Source text: First, tandem monomeric mCherry-GFP-tagged LC3, previously shown to distinguish prefusion autophagic compartments from mature acidic autolysosomes based on the differential pH sensitivity of GFP versus mCherry, was used. […] CYTO-ID assay, a fluorescence-based live-cell assay for accumulated autophagic vacuoles, and immunostaining of p62/SQSTM1, a marker widely used to monitor autophagic activity due to its binding to LC3 and degradation during autophagy, were further performed. […] The difference in p62 between pre-HD-MSNs and HD-MSNs was also validated by immunoblot assay (FIG. 3I). Because caspase activation has been detected in HD, and cell death-related pathways (apoptosis and caspase) were enriched in the brown module, the levels of caspase activation between pre-HD-MSN and HD-MSNs were compared.
# [4] = system: reprogrammed MSNs; assay: SYTOX assay (neuronal cell death); conditions: 50 μM vs DMSO, PID30
# Method: 0.1 μM SYTOX gene nucleic acid stain (Invitrogen, S7020) and 1 μl/mL of Hoechst 33342 (Thermo Scientific, 66249) were added into cell medium. Samples were incubated for at least 30 mins at 37° C. prior to live-cell imaging. Images were taken using Leica DMI 4000B inverted microscope with Leica Application Suite (LAS) Advanced Fluorescence.
# [5] = system: p62/SQSTM1; assay: p62/SQSTM1 immunostaining and immunoblot; conditions: 50 μM vs DMSO, PID26
# Method: (§1) Reprogrammed cells were fixed with 4% paraformaldehyde (Electron Microscopy Sciences, #15710) for 20 min at room temperature (RT), and permeabilized with 0.2% Triton X-100 for 10 min at RT. Cells were blocked with 5% BSA and 1% goat serum in PBS and incubated with primary antibodies at 4° C. overnight, then incubated with secondary antibodies for 1 hr at RT. Cells were incubated with DAPI (Sigma, D-9542) for 5 minutes followed by washing with PBS. Images were captured using a Leica SP5X white light laser confocal system with Leica Application Suite (LAS) Advanced Fluorescence 2.7.3.9723.
# Cells were lysed in 2% SDS buffer. The concentrations of whole-cell lysates were measured using the Pierce BCA protein assay kit (Thermo Scientific, #23227). […]
# First, tandem monomeric mCherry-GFP-tagged LC3, previously shown to distinguish prefusion autophagic compartments from mature acidic autolysosomes based on the differential pH sensitivity of GFP versus mCherry, was used. […] CYTO-ID assay, a fluorescence-based live-cell assay for accumulated autophagic vacuoles, and immunostaining of p62/SQSTM1, a marker widely used to monitor autophagic activity due to its binding to LC3 and degradation during autophagy, were further performed. […]
# [6] = system: HTT inclusion bodies; assay: HTT inclusion bodies / mHTT aggregation by immunostaining; conditions: pre-HD-MSNs, 50 μM vs DMSO, PID30
# Method: as §1
smiles,measurement,setting,value
"O=c1cc(N2CCOCC2)oc2c(-c3ccccc3)cccc12 [LY294002, reference compound]",average number of autolysosomes,[1],decreased
same,average number of autophagosomes,[1],decreased
same,caspase 3/7 activation signal,[2]; PID26,increased
same,neuronal cell death by Annexin V staining,[2]; PID30,increased
same,CYTO-ID signals,[3]; pre-HD-MSNs,decreased
same,CYTO-ID signals,[3]; young Ctrl-MSNs,decreased
same,neuronal death (SYTOX),[4]; Ctrl-MSNs from six healthy young individuals,did not induce neuronal death
same,neuronal cell death (SYTOX),[4]; pre-HD-MSNs,specifically elevated neuronal cell death
same,p62/SQSTM1 expression,[5]; pre-HD-MSNs,increased
same,p62/SQSTM1 expression,[5]; young Ctrl-MSNs,increased
same,number of cells with HTT inclusion bodies,[6],significantly increased
